Data as given in patent publication US20190144550A1.
Numbering of substitutions follows the chain as printed. No constants are given. Whether binding was seen depends on the method and setting. Some entries that bind do so weakly or less than the wild type.

How the values were obtained:
[1] = target: human EGFRvIII expressed on cells (human) (UniProt P00533); test: flow cytometry on cells expressing EGFRvIII (Table 8A)
[2] = target: human EGFRvIII expressed on cells (human) (UniProt P00533); test: flow cytometry, recombinant human IgG1 antibody on F98-EGFRvIII cells
[3] = target: human EGFRvIII expressed on cells (human) (UniProt P00533); test: flow cytometry on cells expressing EGFRvIII (Table 8B)

B1: 42G9 (antibody, V domains shown)
VH: QVTLKESGPVLLKPTETLTLTCTVSGFSLSNPRMGVSWIRQPPGKALEWFAHIFSTDEKSLKLSLRSRLTLSKDTSKSQVVLTMTNMAPVDSATYYCARDSSNYEGYFDFWGQGTLVTVSS
VL: EVVLTQSPATLSVSPGERATLSCRASQSVRSNLAWYQQKSGQAPRLLIYGSTIRATGVPARFSGSGSGTEFTLTISSLQSEDFAVYYCQQYSDWPFTFGPGTKVDIK
binding [1]: binds
binding [2]: binds

B2: 21E11 (antibody, V domains shown)
VH: B1 VH with L12V, P32V, T56S, L61I, K62R, L63R, A88D, S92T
VL: DMVVTQSPATLSVSPGERATLSCRASQSVGSDLAWYQQPPGQSPRLLIYGASTRATGVPARFSGSGSGTDFTLTITSLESEDFAVYYCQQYNDWPFTFGPGTKVDIK
binding [1]: binds

B3: 49B11 (antibody, V domains shown)
VH: B1 VH with L12V, P32V, T56S, L61I, K62R, L63R, A88D, S92T, F110Y
VL: B2 VL with D1E, V3E, S28N, V29I, P39Q, P40S, S43A, Y49S, A60T, E79Q
binding [1]: binds

B4: 12H6 (antibody, V domains shown)
VH: B1 VH with L12V, P32A, F50L, L61I, K62R, L63R, A88D, S92T, F110Y
VL: EVVMTQSPATLSVSPGERATLSCRASQGVSSNFAWYQQRPGQSPRLLLYGASTRATGVPGRFSGSGSGTENILTISSLQSEDFAIYFCQQYKDWPFTFGPGSKVDIK
binding [1]: binds

B5: 12B2 (antibody, V domains shown)
VH: QVTLKESGPVLVKPTETLTLTCTVSGFSLSNPRMGVSWIRQPPGKALEWLGHIFSSDEKSYRLSLRSRLSISKDTSKSQVVLTMTNMDPVDTATYYCVRDSSNYGGYFDYWGQGTLVTVSS
VL: EVVMTQSPATLSVSPGERATLSCRASQSVINNLAWYQQKPGQAPRLLIYGTSTRATDIPARFSGSGSGTEFTLTISSLQSEDFAVYYCQDYNNWPFTFGPGTKVDIK
binding [1]: binds

B6: 11F10 (antibody, V domains shown)
VH: B5 VH with T15I, S25C, S64F, V98A, N103D, G105E
VL: EIVMTQSPATLSVSPGERTTLSCRASQSVGSNLAWYQQKPGQAPRLLIYGASTRASGVPARFSGSGSGTEFTLTISSLQSEDFAVYSCQEYNNWPFTFGQGTKVEIK
binding [1]: binds

B7: 29D5 (antibody, V domains shown)
VH: QVTLKESGPVLVKPTETLTLTCTVSGFSLSNPRMGVSWLRQPPGKALEWFAHIFSTDEKSYSPSLRGRLTVSKDTSKSQVVLTLTNMDPVDTATYYCARDSSNYEGYFDYWGQGTLVTVSS
VL: KIVMTQSPATLSVSPGERATLSCRANQIVSSNLAWYQQKPGQAPRLLVFGTSTRATGIPIRFSGSGSGTEFTLTVSSLQSEDFAVYVCQQYNDWPFTFGPGTKVDIK
binding [1]: binds

B8: 14C11 (antibody, V domains shown)
VH: B1 VH with L12V, S30N, P32A, L61F, K62R, L63T, A88D, S92T, F110Y, T115I
VL: EIVMTQSPATLSVSPGERATLSCRASQSVSNNLAWYQQKPGQAPRLLIYGASTRATGVPARFSGSDSGTEFSLTISSLQSEDFAVYFCQQYKDWPFTFGPGTKVEIK
binding [1]: binds

B9: 20E12 (antibody, V domains shown)
VH: EVNLVESGGGLVKPGGSLRLSCEASGFTFSYAWMSWVRQAPGKGLEWVGRIKSIADGGATDYAAPVRNRFTISRDDSRNTLYLEMHSLKTEDTAVYYCTTIPGNDAFDMWGQGTMVTVSS
VL: DIVLTQSPLSLSVTPGEPASISCRSSQSLLYSNGKNYLDWFLHKPGQSPQLLIYLGSNRASGVPDRFSGSGSGIDFILKISRVEAEDVGVYYCMQAQQTPITFGQGTRLEIK
binding [3]: binds

B10: 26B9 (antibody, V domains shown)
VH: EVQLVESWGVLVKPGGSLRLSCAASGFIFNNAWMSWVRQAPGKGLEWIGRIKSKSDGGTTDYAAPVKDRFTISRDDSKDTLYLQMNGLKTEDTAVYFCTTAPGGPFDYWGQGTLVTVSS
VL: DIVLTQSPLSLPVTPGEPASISCRSSQSLLHRDGFNYLDWFLQKPGQSPQLLIYLASSRASGVPDRFSGSDSGTDFTLKISRVEAEDVGVYYCMQALQTPITFGQGTRLEIK
binding [3]: binds

B11: 30D8 (antibody, V domains shown)
VH: EVQLVESGGGLVKPGGSLRLSCEASGFTFSDAWMSWVRQAPGKGLEWVGRIKSKTDGGTTDYVVPLNGRFIISRDDSRNTLYLQLNNLKTEDTAVYYCTTVPGSYGYWGQGTLVTVSS
VL: B10 VL with L4M, R32N, D33K, G34R, F35N, S58N, S70G, D71G, L97Q
binding [3]: binds
